Laboratory results published in paper PMC5722932.
These are yes or no findings as the source states them, for the method shown. For some of these results: Binding seen in cells or lysates may run through a third protein. Some binding calls cover weakened binding; strength is not graded here. For some of these results: Tags and fused reporters may be left off the sequences shown.

The chains behind the UniProt entries cited, without tags or fusion partners. Residues count along the entry.
UniProt P07237, residues 18-508: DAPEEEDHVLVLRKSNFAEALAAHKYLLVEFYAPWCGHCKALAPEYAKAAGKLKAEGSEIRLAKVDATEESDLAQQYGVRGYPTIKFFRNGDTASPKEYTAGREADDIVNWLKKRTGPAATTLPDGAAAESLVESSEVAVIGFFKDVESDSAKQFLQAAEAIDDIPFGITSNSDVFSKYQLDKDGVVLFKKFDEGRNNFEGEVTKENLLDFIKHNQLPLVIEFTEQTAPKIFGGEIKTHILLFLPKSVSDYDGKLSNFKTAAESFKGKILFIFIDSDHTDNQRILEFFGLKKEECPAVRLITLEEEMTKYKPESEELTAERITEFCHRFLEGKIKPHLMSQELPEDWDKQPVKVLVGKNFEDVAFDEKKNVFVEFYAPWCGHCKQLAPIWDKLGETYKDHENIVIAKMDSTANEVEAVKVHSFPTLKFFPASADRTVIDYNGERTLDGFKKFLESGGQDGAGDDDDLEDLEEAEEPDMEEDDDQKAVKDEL

T1: Human RhoGDIα–GST fusion protein (human) (UniProt P52565)
T1 sequence: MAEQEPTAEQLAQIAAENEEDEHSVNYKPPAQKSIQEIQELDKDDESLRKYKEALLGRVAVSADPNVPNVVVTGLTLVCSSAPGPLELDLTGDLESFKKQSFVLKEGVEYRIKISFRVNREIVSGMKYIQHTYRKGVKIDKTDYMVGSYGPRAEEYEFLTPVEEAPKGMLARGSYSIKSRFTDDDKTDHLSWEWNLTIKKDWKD

T2: Rho guanine dissociation inhibitor-α (human (endogenous in HUVEC)) (UniProt P52565)
T2 sequence: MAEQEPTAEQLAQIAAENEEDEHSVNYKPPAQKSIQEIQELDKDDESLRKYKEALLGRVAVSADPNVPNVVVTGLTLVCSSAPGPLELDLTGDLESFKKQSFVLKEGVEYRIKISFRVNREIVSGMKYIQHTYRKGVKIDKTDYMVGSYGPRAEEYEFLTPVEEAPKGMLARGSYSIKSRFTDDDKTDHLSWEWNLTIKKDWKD

T3: Human RhoGDIα–GST fusion protein (human), P52565
T3 chain: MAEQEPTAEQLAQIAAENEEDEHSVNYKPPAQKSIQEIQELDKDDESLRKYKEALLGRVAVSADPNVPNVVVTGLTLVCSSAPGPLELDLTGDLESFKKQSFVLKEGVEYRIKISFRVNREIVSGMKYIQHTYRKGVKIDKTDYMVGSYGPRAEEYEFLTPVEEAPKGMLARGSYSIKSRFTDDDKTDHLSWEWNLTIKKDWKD

B1: Human RhoGDIα–GST fusion protein, P52565 1-204 (protein)
chain: MAEQEPTAEQLAQIAAENEEDEHSVNYKPPAQKSIQEIQELDKDDESLRKYKEALLGRVAVSADPNVPNVVVTGLTLVCSSAPGPLELDLTGDLESFKKQSFVLKEGVEYRIKISFRVNREIVSGMKYIQHTYRKGVKIDKTDYMVGSYGPRAEEYEFLTPVEEAPKGMLARGSYSIKSRFTDDDKTDHLSWEWNLTIKKDWKD

How the values were obtained:
[1] = biological target: T1, Human RhoGDIα–GST fusion protein (human); experiment: pull-down; 200 μg RhoGDIα-GST (oxidized with 20 mM H2O2 or reduced with 20 mM DTT) or GST alone on glutathione sepharose beads, incubated with HUVEC homogenates overnight at 4 °C; washed in lysis buffer; western blot for PDI (RL90) and GST under reduced conditions; only the target purified
[2] = biological target: T2, Rho guanine dissociation inhibitor-α (human (endogenous in HUVEC)); experiment: co-IP; HUVEC lysate (50 mM Tris-HCl pH 7.4, 150 mM NaCl, 1 mM EDTA, 1% Triton X-100, 10 mM MgCl2, 1 μM MG132) incubated overnight at 4 °C with RhoGDIα antibody, then Protein A-coated magnetic beads 4 h at 4 °C; PDIA1 detected by western blot (RL90)
[3] = biological target: T2, Rho guanine dissociation inhibitor-α (human (endogenous in HUVEC)); experiment: proximity ligation; Duolink PLA in HUVEC fixed with 4% PFA and permeabilized with 0.2% NP40; primary antibodies against PDIA1 and RhoGDIα; confocal microscopy
[4] = biological target: T3, Human RhoGDIα–GST fusion protein …; experiment: dimer band on the western blot of the pull-down; RhoGDIα-GST on glutathione sepharose beads, oxidized (20 mM H2O2) or reduced (20 mM DTT), after incubation with HUVEC lysate; anti-GST blot; dimeric form mainly with the oxidized protein; both purified; conditions: remark: other sources report otherwise

Molecule	binding [1]	binding [2]	binding [3]	binding [4]
Protein disulfide isomerase PDIA1 (from UniProt P07237 18-508)	binds	binds	binds	
B1				binds
